Data taken from publication PMC11758950.
Results are given in words; binding and its absence hold for the method and conditions named. Binding seen in cells or lysates may run through a third protein. Some entries that bind do so weakly or less than the wild type. Tags and fused reporters may be left off the sequences shown.

T1: ELFN1-nLuc (mouse) (UniProt Q8C8T7)
T1 sequence: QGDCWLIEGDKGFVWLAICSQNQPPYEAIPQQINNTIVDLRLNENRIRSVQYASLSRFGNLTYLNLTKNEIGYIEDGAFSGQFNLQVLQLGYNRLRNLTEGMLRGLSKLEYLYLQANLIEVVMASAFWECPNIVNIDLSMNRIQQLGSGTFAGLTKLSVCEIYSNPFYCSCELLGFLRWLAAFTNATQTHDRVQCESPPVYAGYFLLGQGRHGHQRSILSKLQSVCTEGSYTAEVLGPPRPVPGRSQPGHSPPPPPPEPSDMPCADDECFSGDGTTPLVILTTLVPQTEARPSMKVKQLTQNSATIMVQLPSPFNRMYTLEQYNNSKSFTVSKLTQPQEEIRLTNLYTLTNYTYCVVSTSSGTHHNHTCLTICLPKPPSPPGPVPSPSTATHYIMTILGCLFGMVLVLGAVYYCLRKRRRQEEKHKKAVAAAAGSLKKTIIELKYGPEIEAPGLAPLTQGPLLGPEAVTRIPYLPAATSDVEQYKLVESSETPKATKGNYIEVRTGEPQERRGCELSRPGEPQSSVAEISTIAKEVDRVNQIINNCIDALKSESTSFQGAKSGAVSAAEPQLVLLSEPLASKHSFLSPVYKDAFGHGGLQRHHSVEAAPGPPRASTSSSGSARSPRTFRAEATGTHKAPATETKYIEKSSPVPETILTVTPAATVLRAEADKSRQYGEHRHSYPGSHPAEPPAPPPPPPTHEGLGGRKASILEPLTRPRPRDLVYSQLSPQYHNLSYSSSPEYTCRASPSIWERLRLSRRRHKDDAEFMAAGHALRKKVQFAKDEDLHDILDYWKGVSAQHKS

T2: ELFN1-Venus (mouse) (UniProt Q8C8T7)
T2 sequence: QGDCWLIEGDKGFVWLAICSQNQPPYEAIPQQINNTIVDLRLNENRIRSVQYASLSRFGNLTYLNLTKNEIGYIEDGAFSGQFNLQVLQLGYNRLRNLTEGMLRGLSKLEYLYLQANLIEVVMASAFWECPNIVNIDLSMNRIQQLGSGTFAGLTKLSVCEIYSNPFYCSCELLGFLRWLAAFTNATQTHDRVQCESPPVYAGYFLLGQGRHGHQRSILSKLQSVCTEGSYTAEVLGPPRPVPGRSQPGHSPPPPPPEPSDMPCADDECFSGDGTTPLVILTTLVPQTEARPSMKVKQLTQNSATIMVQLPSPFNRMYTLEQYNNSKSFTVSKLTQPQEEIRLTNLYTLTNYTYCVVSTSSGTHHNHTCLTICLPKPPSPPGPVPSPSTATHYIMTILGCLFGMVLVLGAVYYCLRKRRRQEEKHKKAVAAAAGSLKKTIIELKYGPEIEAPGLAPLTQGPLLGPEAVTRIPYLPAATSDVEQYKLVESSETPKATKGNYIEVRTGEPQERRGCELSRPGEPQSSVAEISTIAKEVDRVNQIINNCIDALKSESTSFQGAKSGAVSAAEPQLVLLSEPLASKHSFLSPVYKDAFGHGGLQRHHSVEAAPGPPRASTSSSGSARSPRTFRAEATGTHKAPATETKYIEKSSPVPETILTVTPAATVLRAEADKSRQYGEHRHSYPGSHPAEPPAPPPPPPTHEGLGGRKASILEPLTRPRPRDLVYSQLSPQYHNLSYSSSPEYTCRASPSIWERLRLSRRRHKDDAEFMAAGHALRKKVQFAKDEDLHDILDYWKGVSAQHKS

T3: EctoELFN1-Fc (mouse) (UniProt Q8C8T7)
T3 sequence: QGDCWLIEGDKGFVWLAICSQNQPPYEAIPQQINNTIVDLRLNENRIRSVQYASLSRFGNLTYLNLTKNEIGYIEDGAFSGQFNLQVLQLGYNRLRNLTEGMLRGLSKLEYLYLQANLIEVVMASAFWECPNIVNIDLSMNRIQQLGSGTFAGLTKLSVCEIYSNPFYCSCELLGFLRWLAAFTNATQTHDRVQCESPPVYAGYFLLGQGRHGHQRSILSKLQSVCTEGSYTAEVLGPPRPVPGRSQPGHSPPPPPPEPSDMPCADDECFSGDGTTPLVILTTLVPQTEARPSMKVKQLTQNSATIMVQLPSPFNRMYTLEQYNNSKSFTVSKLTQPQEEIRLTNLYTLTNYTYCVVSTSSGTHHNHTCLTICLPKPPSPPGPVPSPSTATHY

T4: ELFN2-nLuc (UniProt Q68FM6)
T4 sequence: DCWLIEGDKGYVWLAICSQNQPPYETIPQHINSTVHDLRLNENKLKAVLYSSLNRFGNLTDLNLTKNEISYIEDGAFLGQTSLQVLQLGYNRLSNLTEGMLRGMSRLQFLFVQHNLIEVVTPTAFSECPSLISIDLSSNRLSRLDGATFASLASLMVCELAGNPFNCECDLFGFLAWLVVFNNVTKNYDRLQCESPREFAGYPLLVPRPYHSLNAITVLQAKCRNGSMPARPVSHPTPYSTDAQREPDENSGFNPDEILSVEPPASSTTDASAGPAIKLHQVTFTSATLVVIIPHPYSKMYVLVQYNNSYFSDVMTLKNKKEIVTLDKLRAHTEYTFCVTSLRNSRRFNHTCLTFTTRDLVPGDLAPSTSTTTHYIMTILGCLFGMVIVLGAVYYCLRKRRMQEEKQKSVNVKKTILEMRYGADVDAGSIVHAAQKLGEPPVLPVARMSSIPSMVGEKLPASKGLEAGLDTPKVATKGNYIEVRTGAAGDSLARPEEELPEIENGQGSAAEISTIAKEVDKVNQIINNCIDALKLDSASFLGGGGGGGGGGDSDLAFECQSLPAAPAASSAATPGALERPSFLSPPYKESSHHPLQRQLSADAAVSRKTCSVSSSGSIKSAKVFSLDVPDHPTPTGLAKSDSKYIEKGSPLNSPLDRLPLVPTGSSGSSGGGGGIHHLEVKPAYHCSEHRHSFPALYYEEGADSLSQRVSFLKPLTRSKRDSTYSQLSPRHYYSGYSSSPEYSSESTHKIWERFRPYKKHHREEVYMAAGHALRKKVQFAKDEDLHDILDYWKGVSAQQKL


Legend:
ELFN1-nLuc (mouse) [1] = target: T1, ELFN1-nLuc (mouse); assay: FRET or BRET; donor/acceptor titration BRET in live transfected HEK 293 T/17 cells; constant nLuc donor construct (5 ng), increasing Venus acceptor construct (0-2.4 ug); Nano-Glo reagent 0.1%; ratio 535 nm / 460 nm
ELFN1-nLuc (mouse) [2] = target: T1, ELFN1-nLuc (mouse); assay: FRET or BRET; BRET disruption (competition) in live HEK 293 T/17 cells: stable levels of ELFN1-nLuc and ELFN1-Venus below saturation, co-expression of pcDNA3.1, ELFN1-myc or ELFN1ΔLRR-myc
ELFN1-Venus (mouse) = target: T2, ELFN1-Venus (mouse); assay: co-IP; co-transfected HEK 293 T/17 cells (2.5 ug of each construct), 1% Triton-X lysis buffer; Protein G Sepharose beads with mouse GFP antibody, 1 h at 4 C, washed 3 times; blot with myc antibody
EctoELFN1-Fc (mouse) = target: T3, EctoELFN1-Fc (mouse); assay: pull-down; Fc or EctoELFN1-Fc secreted into OPTI-MEM (48 h) incubated with Protein G Sepharose beads and lysate of ELFN1-myc or ELFN2-myc transfected HEK 293 T/17 cells in 1% Triton-X lysis buffer, 1 h at 4 C, washed 3 times; blot with myc antibody
ELFN2-nLuc = target: T4, ELFN2-nLuc; assay: FRET or BRET; donor/acceptor titration BRET in live transfected HEK 293 T/17 cells; constant nLuc donor construct (5 ng), increasing Venus acceptor construct (0-2.4 ug); Nano-Glo reagent 0.1%; ratio 535 nm / 460 nm

| binding (ELFN1-nLuc (mouse) [1]) | binding (ELFN1-nLuc (mouse) [2]) | binding (ELFN1-Venus (mouse)) | binding (EctoELFN1-Fc (mouse)) | binding (ELFN2-nLuc) | Binder |
| --- | --- | --- | --- | --- | --- |
| binds | binds |  |  |  | ELFN1-Venus (protein, UniProt Q8C8T7 26-828) QGDCWLIEGDKGFVWLAICSQNQPPYEAIPQQINNTIVDLRLNENRIRSVQYASLSRFGNLTYLNLTKNEIGYIEDGAFSGQFNLQVLQLGYNRLRNLTEGMLRGLSKLEYLYLQANLIEVVMASAFWECPNIVNIDLSMNRIQQLGSGTFAGLTKLSVCEIYSNPFYCSCELLGFLRWLAAFTNATQTHDRVQCESPPVYAGYFLLGQGRHGHQRSILSKLQSVCTEGSYTAEVLGPPRPVPGRSQPGHSPPPPPPEPSDMPCADDECFSGDGTTPLVILTTLVPQTEARPSMKVKQLTQNSATIMVQLPSPFNRMYTLEQYNNSKSFTVSKLTQPQEEIRLTNLYTLTNYTYCVVSTSSGTHHNHTCLTICLPKPPSPPGPVPSPSTATHYIMTILGCLFGMVLVLGAVYYCLRKRRRQEEKHKKAVAAAAGSLKKTIIELKYGPEIEAPGLAPLTQGPLLGPEAVTRIPYLPAATSDVEQYKLVESSETPKATKGNYIEVRTGEPQERRGCELSRPGEPQSSVAEISTIAKEVDRVNQIINNCIDALKSESTSFQGAKSGAVSAAEPQLVLLSEPLASKHSFLSPVYKDAFGHGGLQRHHSVEAAPGPPRASTSSSGSARSPRTFRAEATGTHKAPATETKYIEKSSPVPETILTVTPAATVLRAEADKSRQYGEHRHSYPGSHPAEPPAPPPPPPTHEGLGGRKASILEPLTRPRPRDLVYSQLSPQYHNLSYSSSPEYTCRASPSIWERLRLSRRRHKDDAEFMAAGHALRKKVQFAKDEDLHDILDYWKGVSAQHKS |
|  |  | binds | binds |  | ELFN1-myc (protein, UniProt Q8C8T7 26-828) QGDCWLIEGDKGFVWLAICSQNQPPYEAIPQQINNTIVDLRLNENRIRSVQYASLSRFGNLTYLNLTKNEIGYIEDGAFSGQFNLQVLQLGYNRLRNLTEGMLRGLSKLEYLYLQANLIEVVMASAFWECPNIVNIDLSMNRIQQLGSGTFAGLTKLSVCEIYSNPFYCSCELLGFLRWLAAFTNATQTHDRVQCESPPVYAGYFLLGQGRHGHQRSILSKLQSVCTEGSYTAEVLGPPRPVPGRSQPGHSPPPPPPEPSDMPCADDECFSGDGTTPLVILTTLVPQTEARPSMKVKQLTQNSATIMVQLPSPFNRMYTLEQYNNSKSFTVSKLTQPQEEIRLTNLYTLTNYTYCVVSTSSGTHHNHTCLTICLPKPPSPPGPVPSPSTATHYIMTILGCLFGMVLVLGAVYYCLRKRRRQEEKHKKAVAAAAGSLKKTIIELKYGPEIEAPGLAPLTQGPLLGPEAVTRIPYLPAATSDVEQYKLVESSETPKATKGNYIEVRTGEPQERRGCELSRPGEPQSSVAEISTIAKEVDRVNQIINNCIDALKSESTSFQGAKSGAVSAAEPQLVLLSEPLASKHSFLSPVYKDAFGHGGLQRHHSVEAAPGPPRASTSSSGSARSPRTFRAEATGTHKAPATETKYIEKSSPVPETILTVTPAATVLRAEADKSRQYGEHRHSYPGSHPAEPPAPPPPPPTHEGLGGRKASILEPLTRPRPRDLVYSQLSPQYHNLSYSSSPEYTCRASPSIWERLRLSRRRHKDDAEFMAAGHALRKKVQFAKDEDLHDILDYWKGVSAQHKS |
|  |  |  | binds |  | ELFN2-myc (protein, UniProt Q68FM6 23-823) DCWLIEGDKGYVWLAICSQNQPPYETIPQHINSTVHDLRLNENKLKAVLYSSLNRFGNLTDLNLTKNEISYIEDGAFLGQTSLQVLQLGYNRLSNLTEGMLRGMSRLQFLFVQHNLIEVVTPTAFSECPSLISIDLSSNRLSRLDGATFASLASLMVCELAGNPFNCECDLFGFLAWLVVFNNVTKNYDRLQCESPREFAGYPLLVPRPYHSLNAITVLQAKCRNGSMPARPVSHPTPYSTDAQREPDENSGFNPDEILSVEPPASSTTDASAGPAIKLHQVTFTSATLVVIIPHPYSKMYVLVQYNNSYFSDVMTLKNKKEIVTLDKLRAHTEYTFCVTSLRNSRRFNHTCLTFTTRDLVPGDLAPSTSTTTHYIMTILGCLFGMVIVLGAVYYCLRKRRMQEEKQKSVNVKKTILEMRYGADVDAGSIVHAAQKLGEPPVLPVARMSSIPSMVGEKLPASKGLEAGLDTPKVATKGNYIEVRTGAAGDSLARPEEELPEIENGQGSAAEISTIAKEVDKVNQIINNCIDALKLDSASFLGGGGGGGGGGDSDLAFECQSLPAAPAASSAATPGALERPSFLSPPYKESSHHPLQRQLSADAAVSRKTCSVSSSGSIKSAKVFSLDVPDHPTPTGLAKSDSKYIEKGSPLNSPLDRLPLVPTGSSGSSGGGGGIHHLEVKPAYHCSEHRHSFPALYYEEGADSLSQRVSFLKPLTRSKRDSTYSQLSPRHYYSGYSSSPEYSSESTHKIWERFRPYKKHHREEVYMAAGHALRKKVQFAKDEDLHDILDYWKGVSAQQKL |
| binds |  |  |  | binds | ELFN2-Venus (protein, UniProt Q68FM6 23-823) DCWLIEGDKGYVWLAICSQNQPPYETIPQHINSTVHDLRLNENKLKAVLYSSLNRFGNLTDLNLTKNEISYIEDGAFLGQTSLQVLQLGYNRLSNLTEGMLRGMSRLQFLFVQHNLIEVVTPTAFSECPSLISIDLSSNRLSRLDGATFASLASLMVCELAGNPFNCECDLFGFLAWLVVFNNVTKNYDRLQCESPREFAGYPLLVPRPYHSLNAITVLQAKCRNGSMPARPVSHPTPYSTDAQREPDENSGFNPDEILSVEPPASSTTDASAGPAIKLHQVTFTSATLVVIIPHPYSKMYVLVQYNNSYFSDVMTLKNKKEIVTLDKLRAHTEYTFCVTSLRNSRRFNHTCLTFTTRDLVPGDLAPSTSTTTHYIMTILGCLFGMVIVLGAVYYCLRKRRMQEEKQKSVNVKKTILEMRYGADVDAGSIVHAAQKLGEPPVLPVARMSSIPSMVGEKLPASKGLEAGLDTPKVATKGNYIEVRTGAAGDSLARPEEELPEIENGQGSAAEISTIAKEVDKVNQIINNCIDALKLDSASFLGGGGGGGGGGDSDLAFECQSLPAAPAASSAATPGALERPSFLSPPYKESSHHPLQRQLSADAAVSRKTCSVSSSGSIKSAKVFSLDVPDHPTPTGLAKSDSKYIEKGSPLNSPLDRLPLVPTGSSGSSGGGGGIHHLEVKPAYHCSEHRHSFPALYYEEGADSLSQRVSFLKPLTRSKRDSTYSQLSPRHYYSGYSSSPEYSSESTHKIWERFRPYKKHHREEVYMAAGHALRKKVQFAKDEDLHDILDYWKGVSAQQKL |
